PubChem BioAssay AID504648 (National Center for Advancing Translational Sciences (NCATS), 2011)
Screen size: about 390,000 compounds; about 610 (0.16%) were called active. The inconclusive results got no clear call from the source; some entries with a clear call stand among them for comparison. The call rests on the fitted dose curve; in most records, active means well fitted inhibition curve with a large enough effect; inconclusive means small, poorly fitted or top-dose-only effect, or effect the other way, or another doubt; inactive means no such curve, though single readings can be large or run the other way. Potencies beside an inconclusive call are fits to weak or partial responses and may not hold up.

test: Nrf2 qHTS screen for inhibitors: counterscreen for cytotoxicity; conditions: A549 ARE-Fluc cells, CellTiter-Fluor viability, 18-24 h; activity change, negative = cytotoxicity: at 46 µM (top of the series)
How it was run: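 A549 ARE-Fluc cells in 5% FBS OPTI-MEM, 5000 cells/well, rested 2 h then exposed to compounds in concentration-response for 18-24 h at 37 °C. Viability by CellTiter-Fluor fluorescence (Ex 405/Em 525) after 30 min; luciferase luminescence (BugLite, 15 min, RT) read afterwards.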
On the % scale 0 is the no-effect control and ±100 the full control effect; potency means the concentration at half of the fitted maximal effect.

SMILES	Potency	activity change, negative = cytotoxicity
Cc1cc(N2C(=O)C(O)=C(C(=O)c3cccs3)C2c2cccc(O)c2)no1 (stereo unspecified)	inconclusive: 18.4 µM [falling, partial curve, poor fit]	–
O=C1CC(c2cccc(Br)c2)c2cc3c(cc2N1)CCC3 (stereo unspecified)	inconclusive: 29.1 µM [falling, single point]	–
CN(C)CCCNC(=S)Nc1ccc(Br)cc1	inconclusive: 23.1 µM [activator, partial curve]	–
Cn1cc([C@@H]2C[C@H]3CN(Cc4cccc(Cl)c4)C(=O)[C@]34CCCN24)c(-c2ccccc2)n1	inconclusive: 29.1 µM [falling, partial curve, poor fit]	–
CCCCOc1ccc(Br)cc1/C(C)=N/NC1=NCCN1	active: 11.6 µM	–
COc1ccc(-c2csc(NC(=O)C3=NN(c4ccccc4)C(=O)CC3)n2)cc1	inconclusive: 18.4 µM [falling, partial curve, poor fit]	–
COc1ccc(NC(=O)C(=O)c2cn(CC(=O)N3CCCC3)c3ccccc23)cc1	inconclusive: 0.731 µM [falling, partial curve, poor fit]	–
COc1cc(CCNC2=CC(=O)c3ncccc3C2=O)ccc1O	active: 16.4 µM	–
CCN(CC)S(=O)(=O)c1ccc(NC(=O)c2cccnc2Cl)c(NC(=O)c2cccnc2Cl)c1	inconclusive: 29.1 µM [falling, single point]	–
O=C(NC1CCC(O)CC1)c1ccc(-c2ccc([N+](=O)[O-])cc2)o1 (stereo unspecified)	inconclusive: 32.6 µM [falling, partial curve, poor fit]	–
O=c1c(/C=N/Nc2ccccc2)c(Sc2nnnn2-c2ccccc2)nc2ccccn12	–	inactive: -12.3%
C=CCNC(=S)N/N=C/c1ccc(-c2ccc(OC)cc2)o1	inconclusive: 18.4 µM [falling, single point]	–
Cc1cccc(N=NC(=S)NNc2cccc(C)c2)c1	–	inactive: -7.94%
COc1cc2cc(CN(CCO)S(=O)(=O)c3ccccc3Cl)c(=O)[nH]c2cc1OC	inconclusive: 16.4 µM [falling, single point]	–
S=C(NC1CCCC1)N1CCN(c2ccccn2)CC1	–	inactive: 13.2%
Cc1nn(-c2ccccc2)c(N2CCCC2)c1/C=N/Nc1ccc(S(=O)(=O)Nc2ccccc2)cc1[N+](=O)[O-]	inconclusive: 20.6 µM [falling, partial curve, poor fit]	–
Cc1ccc(NC(=O)CSc2nc3ccccc3c3nc(CCc4c(C)n[nH]c4C)nn23)cc1F	inconclusive: 11.6 µM [falling, single point]	–
COC(=O)N1C(=O)[C@@](c2ccc(OC)cc2)(C(C)C)N1C(=O)OC	inconclusive: 25.9 µM [falling, single point]	–
O=C1C(=O)c2ccccc2C(O)=C1c1cccc([N+](=O)[O-])c1	inconclusive: 18.4 µM [falling, partial curve, poor fit]	–
O=C(CN1C(=O)c2cccc3cccc1c23)NCC1CCCO1 (stereo unspecified)	inconclusive: 5.8 µM [activator, full curve, poor fit]	–
N#C/C(=N\Nc1ccccc1)C(=N)N1CCOCC1	inconclusive: 32.6 µM [falling, partial curve, poor fit]	–
Cc1ccc(NC(=O)CCN2CCN(C/C=C/c3ccccc3)CC2)cc1C	inconclusive: 32.6 µM [falling, single point]	–
Cc1nc2ccccc2n1/N=C/c1ccc([N+](=O)[O-])o1	inconclusive: 29.1 µM [falling, single point]	–
COc1ccc(S(=O)(=O)N2CCCCCC2)cc1C(=O)Nc1ccc(C)cn1	–	inactive: 2.5%

SMILES	Potency	activity change, negative = cytotoxicity
CC(C)(C)C1CCc2c(sc3ncn(N)c(=N)c23)C1 (stereo unspecified)	inconclusive: 23.1 µM [activator, partial curve]	–
Cc1ccccc1Cn1nnc2c1C(=O)c1ccccc1C2=O	–	inactive: -2.92%
CC(C)Sc1nc(N)c2c3c(sc2n1)CN(C)CC3	–	inactive: 2%
COc1cc(OC)c(NC(=O)CCc2nc(C3=CCN(Cc4cccc(Cl)c4)CC3)no2)cc1Cl	inconclusive: 20.6 µM [falling, partial curve, poor fit]	–
CCc1nnc(NC(=O)c2ccc(S(=O)(=O)N3CCCCCC3)cc2)s1	inconclusive: 20.6 µM [activator, single point]	–
CCOc1ccc(NC(=S)Nc2ccc(OC)cc2)cc1	–	inactive: 9.25%
Cc1nc2cccnc2n1-c1cccc(C(=O)NCc2cccc(Cl)c2)c1	–	inactive: 13.9%
COC(=O)c1ccc(/C(O)=C(\C#N)c2nc3ccccc3s2)cc1	inconclusive: 29.1 µM [falling, single point]	–
C/C(=N\NC(=O)c1cc(-c2cccnc2)nc2ccccc12)c1ccc(O)cc1O	inconclusive: 14.6 µM [falling, single point]	–
COCCn1ccc2c(OCC(=O)NCCc3ccccc3)cccc2c1=O	–	inactive: 0.207%
COc1cc(C#N)ccc1OCC(=O)Nc1cccc(S(=O)(=O)N2CCCC2)c1	inconclusive: 2.06 µM [activator, partial curve, poor fit]	–
CO/N=C/c1ccc(N2CCN(C(=O)c3cccc(C(F)(F)F)c3)CC2)c([N+](=O)[O-])c1	inconclusive: 20.6 µM [falling, single point]	–
NS(=O)(=O)c1cccc(NC(=O)CSc2ncc(C(F)(F)F)cc2Cl)c1	inconclusive: 29.1 µM [falling, single point]	–
O=C(/C=C/c1ccc(Cl)cc1)c1ccc([N+](=O)[O-])o1	–	inactive: -17.5%
COc1ccc(N(C(C)C(=O)N2CCCC2)S(C)(=O)=O)cc1 (stereo unspecified)	–	inactive: 2.18%
CCOC(=O)Cc1ccc(NC(=O)Nc2nnc(N3CCCCC3C)s2)cc1 (stereo unspecified)	inconclusive: 29.1 µM [falling, single point]	–
O=S(=O)(N/N=C/c1cn(Cc2ccccc2)c2ccccc12)c1ccccc1	inconclusive: 29.1 µM [falling, single point]	–
CC(C)(C)CC(=O)Nc1ccc(Nc2ccccc2)cc1	–	inactive: -0.797%
CCc1cc(=O)oc2cc(OC(C)C(=O)NCC(O)c3ccccc3)c(Cl)cc12 (stereo unspecified)	–	inactive: -1%
CCOc1ccc(NC(=O)COc2ccc(C(=O)NCc3cccnc3)cc2OC)cc1	–	inactive: -3.93%
O=C(Nc1ccccc1-c1ccccc1)C1CCCN(c2ncccn2)C1 (stereo unspecified)	–	inactive: -1.89%
COc1cccc(NC(=O)CN(C)C(=O)C(Sc2ccccc2)c2ccccc2)c1 (stereo unspecified)	inconclusive: 23.1 µM [falling, single point]	–
COc1ccccc1CNCC(O)Cn1c2ccccc2c2ccccc21 (stereo unspecified)	inconclusive: 25.9 µM [falling, single point]	–
Cc1cccc(N2CCN(S(=O)(=O)c3ccc4c(c3)CCC(=O)N4)CC2C)c1 (stereo unspecified)	inconclusive: 29.1 µM [falling, partial curve, poor fit]	–

SMILES	Potency	activity change, negative = cytotoxicity
CCC(C)Sc1cccc(-c2nc3ccc(C)cn3c2NCc2ccccc2)c1 (stereo unspecified)	inconclusive: 20.6 µM [falling, single point]	–
CC(C)CC(NC(=O)c1ccc(Cl)cc1)C(=O)OCC(=O)c1ccc2c(c1)NC(=O)CO2 (stereo unspecified)	active: 20.6 µM	–
COc1ccccc1CC(=O)Nc1ccc2c(C)cc(=O)oc2c1	inconclusive: 29.1 µM [activator, single point]	–
COC(=O)C1=C(C)Nc2sc(C(N)=O)c(N)c2C1c1ccncc1 (stereo unspecified)	inconclusive: 29.1 µM [activator, single point]	–
CCN1CCN(CCCNC(=O)CN2C(=O)c3cccnc3Oc3ccc(Cl)cc32)CC1	–	inactive: 1.12%
O=C(/C=C/c1ccc2c(c1)OCCO2)c1ccccc1	–	inactive: 12%
COCCNC(=O)/C(C#N)=C/c1cc(C)n(C2CCCCC2)c1C	inconclusive: 4.61 µM [falling, partial curve, poor fit]	–
COc1ccccc1C(=O)Nc1ccc2oc(-c3ccc(F)cc3)nc2c1	–	inactive: -12.5%
Cn1c(=O)c(C(=O)N2CCc3ccccc32)cc2cccnc21	inconclusive: 4.61 µM [falling, partial curve, poor fit]	–
COCCN(Cc1nc2ccccc2c(=O)[nH]1)C(=O)COc1ccccc1-c1ccccc1	inconclusive: 4.11 µM [falling, partial curve, poor fit]	–
Cc1cccc(NC(=O)c2sc3cccc(Cl)c3c2Cl)c1	inconclusive: 14.6 µM [activator, partial curve, poor fit]	–
CCCCN(C)S(=O)(=O)c1ccc(C(=O)Nc2nnc(CSC)o2)cc1	–	inactive: -20.1%
Cc1ccccc1NS(=O)(=O)c1cc(C(=O)NCCC2=CCCCC2)ccc1C	inconclusive: 20.6 µM [falling, single point]	–
CCOc1ccc2c(c1)C(NC(C)=O)C(=O)N2CCN1CCOCC1 (stereo unspecified)	–	inactive: -4.67%
COc1ccc(O)c(C(=O)CC(=O)c2ccc(F)cc2)c1	–	inactive: -7.52%
CC1=C(C(=O)Nc2ccccc2)C(c2ccncc2)n2nc(SCc3ccccc3)nc2N1 (stereo unspecified)	–	inactive: -11.2%
CC(C)c1ccc(NC(=O)CCS(=O)(=O)c2ccc(Br)s2)cc1	–	inactive: -2.41%
O=[N+]([O-])c1cc(CN2CCOCC2)c2cccnc2c1O	inconclusive: 18.4 µM [falling, partial curve]	–
CCc1ccc(C(=O)NNC(=O)OC)cc1	–	inactive: 4.42%
CCc1nnc(NC(=O)c2ccc(-c3ccccc3Cl)o2)s1	inconclusive: 7.31 µM [falling, single point]	–
O=C(NC(=S)Nc1ccc2c(c1)OCCO2)c1ccco1	–	inactive: 5.19%
CCOC(=O)c1cnc(Nc2nc3ccccc3o2)nc1CSc1nnc(C)s1	inconclusive: 5.17 µM [falling, single point]	–
COc1ccc(-c2cc(-c3nnc(COC(=O)CC4CCCC4)o3)c3ccccc3n2)cc1OC	–	inactive: 1.4%

Quoted at random: 4 entries already listed
SMILES	Potency	activity change, negative = cytotoxicity
CCC(C)Sc1cccc(-c2nc3ccc(C)cn3c2NCc2ccccc2)c1 (stereo unspecified)	inconclusive: 20.6 µM [falling, single point]	–
CC(C)c1ccc(NC(=O)CCS(=O)(=O)c2ccc(Br)s2)cc1	–	inactive: -2.41%
COc1ccccc1CC(=O)Nc1ccc2c(C)cc(=O)oc2c1	inconclusive: 29.1 µM [activator, single point]	–
COC(=O)C1=C(C)Nc2sc(C(N)=O)c(N)c2C1c1ccncc1 (stereo unspecified)	inconclusive: 29.1 µM [activator, single point]	–
